## Results of single-concentration screens

Source: ChEMBL document CHEMBL3988442, “University of Dundee, Small-Polar-MMV Screening Library” (2021).

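Growth of Mycobacterium tuberculosis over 3 days (7H9 medium with glucose and tyloxapol); the read-out is not stated. Concentration: 50 µM. The record gives no direction; compounds that gave an IC50 in retests scored well above the rest, so higher reads as more growth inhibition. About 69,000 compounds were tested under these conditions; 1.1% (about 760) showed 50% or more at least once.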

Each number is a percent effect as filed.
How 0% and 100% were set is not recorded. Most values in the screen are low, and negative values occur.
This is an unselected part of the compounds tested.
Two or more numbers in one place are separate tests of the same structure; such repeats can differ widely.

structure: O=C(CC1CC1)NC1CCc2c(ccc(=O)n2CC2CC2)C1 (configuration not stated)
Percent Effect: -2.539 & 6.164

structure: O=C(NCc1cc[nH]n1)NCC(c1ccco1)N1CCCC1 (configuration not stated)
Percent Effect: -0.1386

structure: CC(C(=O)O)N1CCc2onc(-c3ccc(F)c(F)c3)c2C1 (configuration not stated)
Percent Effect: -2.652 & 1.866

structure: Cn1cnc2c1C(C(=O)N1CCOCC1)N(C(=O)c1ccccc1)CC2 (configuration not stated)
Percent Effect: 5.894 & -3.391

structure: CN(C)C(=O)c1cncnc1-c1ccc(CNC(=O)C2CC2)cc1
Percent Effect: -6.451

structure: CC(C)n1[nH]c(=O)c2c1NC(=O)CC2c1ccc2ncccc2c1 (configuration not stated)
Percent Effect: -24.06

structure: COc1ccc(Cl)cc1NCCC(=O)NCCNc1cnccn1
Percent Effect: -11.58 & -3.263

structure: CCOc1cc(C(=O)N2CCCC(c3cc(C(N)=O)[nH]n3)C2)ccn1 (configuration not stated)
Percent Effect: -6.648

structure: Cc1nc(CNCC2CCCN2c2cccnn2)oc1C (configuration not stated)
Percent Effect: -27.24

structure: CC(=O)N1CCc2nc3sc(C(N)=O)c(N)c3c(C(F)(F)F)c2C1
Percent Effect: 10.33

structure: CSc1ccc(OC(C)C(=O)Nc2cc(C)n[nH]2)cc1 (configuration not stated)
Percent Effect: 20.42

structure: CCC(C(=O)NCc1cc(N2CCOCC2)ncn1)n1cccn1 (configuration not stated)
Percent Effect: -20.4

structure: COc1cccc(COCC(O)CN2CC(n3cccn3)C2)c1 (configuration not stated)
Percent Effect: 12.29

structure: CC(=O)N1CCCN(C(=O)c2cnc(OC(C)C)c(Cl)c2)CC1
Percent Effect: -11.59

structure: Cc1cc(C)n(CC2CCCN2C(=O)c2ccc(N(C)C)nn2)n1 (configuration not stated)
Percent Effect: 17.14

structure: CC(C)C1CCCN1C(=O)Nc1ccc(=O)n(C)c1 (configuration not stated)
Percent Effect: -19.86

structure: Cc1cc(CN2CCN(Cc3cc(C#N)ccc3F)CC2)no1
Percent Effect: -2.821 & -13.54

structure: O=C(c1scc2c1OCCO2)N1CCN(Cc2cccc(F)c2)CC1
Percent Effect: -35.68

structure: O=C(NC1CCCC1)c1cc(Cn2cnc3ccccc32)on1
Percent Effect: 11.06 & 7.948

structure: Cc1cc(CNc2ccc3nc(C4CC4)sc3c2)no1
Percent Effect: -1.946 & 15.15

structure: COc1cc(C)cc(C(C(=O)O)N2CCN(C3CCCC3)CC2)c1OC (configuration not stated)
Percent Effect: -19.4

structure: [H][C@@]12CS(=O)(=O)C[C@]1([H])N(C(=O)c1cc(C(F)(F)F)n[nH]1)CCN2CC
Percent Effect: 11.19

structure: COc1ccc(-c2noc(Cn3cc4c(n3)CCC4)n2)c(OC)c1OC
Percent Effect: 6.029

structure: CC(C)(C(=O)N1CCC(C(N)=O)C1)c1ccccc1F (configuration not stated)
Percent Effect: -19.16

structure: O=C(c1ccoc1)N1CCCn2nnc(COCC3CC3)c2C1
Percent Effect: -29.21

structure: O=C(NC1CCC(N2C(=O)CCC2=O)CC1)c1c[nH]c2ccccc12 (configuration not stated)
Percent Effect: -14.44

structure: CC[C@H](C)[C@@H](CO)NC(C)Cc1ccc(Cl)cc1 (some centres not stated)
Percent Effect: 0.2173

structure: CCn1cc(S(=O)(=O)N2CCCC3(CC=CNC3=O)C2)cn1 (configuration not stated)
Percent Effect: 24.99

structure: CCn1cc(N)c(C(=O)NCc2cnn(C)c2)n1
Percent Effect: -18.53

structure: [H][C@@]12CCCCCN(C(C)=O)[C@@]1([H])[C@H](c1cccc(F)c1)CN2C(=O)COC
Percent Effect: -44.97

structure: CC(C(=O)NCC(F)(F)F)N1CCC(N2CCN(C)C2=O)CC1 (configuration not stated)
Percent Effect: -17.33

2 of the entries, repeated:

{"structure": "CC(C)C1CCCN1C(=O)Nc1ccc(=O)n(C)c1", "stereo": "configuration not stated", "Percent Effect": -19.86}
{"structure": "CC(C)n1[nH]c(=O)c2c1NC(=O)CC2c1ccc2ncccc2c1", "stereo": "configuration not stated", "Percent Effect": -24.06}